Assay: Brain uptake in CF-1 mice after IV administration
Conditions: CF-1, mouse, in vivo, 10 μmol/kg
Protocol: The following assay was employed to determine the brain penetration of compounds encompassed by the present invention.
In-life phase: Test compounds were administered to CF-1 (20-30 g) mice at 10 μmol/kg (4 to 7 mg/kg) following IV administration in the tail vein. Two time-points, 5 and 60 min, were collected post dose. Four mice were harvested for heparinized plasma and non-perfused brains at each time-point for a total of 8 mice per compound.
Analytical phase: Samples were extracted and evaporated to dryness, then reconstituted and injected onto a reverse phase chromatographic column while monitoring the effluent with a triple quadrupole mass spectrometer. Quantitation was then performed with a 1/x^2 weighted fit of the least-squares regression from calibration standards prepared in parallel with the in vivo samples. The LOQ is generally 1 ng/mL and 0.5 ng/g for the plasma and brain respectively. Data was reported in micromolar (μM) units. Brain levels were corrected for plasma volumes (16 μL/g).

CN1C(=O)CN=C(c2ccccc2)c2cc(Cl)ccc21 [Diazepam]
concentration at 5 min: 5.48 µM
concentration at 60 min: 176 nM

— patent US20050239832A1, “Methods of treatment of amyloidosis using bi-cyclic aspartyl protease inhibitors” (priority 2004, published 2005)
